No constants are given. Whether binding was seen depends on the method and setting. For some assays here: Binding calls can cover weak binding; strength is not graded here. Tags and fused reporters may be left off the sequences shown. For some assays here: Binding seen in cells or lysates may run through a third protein.
B1: TOPLESS (TPL) of Arabidopsis, yeast two-hybrid fusion (protein, UniProt Q94AI7 1-1131)
chain: MSSLSRELVFLILQFLDEEKFKETVHKLEQESGFFFNMKYFEDEVHNGNWDEVEKYLSGFTKVDDNRYSMKIFFEIRKQKYLEALDKHDRPKAVDILVKDLKVFSTFNEELFKEITQLLTLENFRENEQLSKYGDTKSARAIMLVELKKLIEANPLFRDKLQFPTLRNSRLRTLINQSLNWQHQLCKNPRPNPDIKTLFVDHSCGPPNGARAPSPVNNPLLGGIPKAGGFPPLGAHGPFQPTASPVPTPLAGWMSSPSSVPHPAVSAGAIALGGPSIPAALKHPRTPPTNASLDYPSADSEHVSKRTRPMGISDEVNLGVNMLPMSFSGQAHGHSPAFKAPDDLPKTVARTLSQGSSPMSMDFHPIKQTLLLVGTNVGDIGLWEVGSRERLVQKTFKVWDLSKCSMPLQAALVKEPVVSVNRVIWSPDGSLFGVAYSRHIVQLYSYHGGEDMRQHLEIDAHVGGVNDISFSTPNKQLCVITCGDDKTIKVWDAATGVKRHTFEGHEAPVYSVCPHYKENIQFIFSTALDGKIKAWLYDNMGSRVDYDAPGRWCTTMAYSADGTRLFSCGTSKDGESFIVEWNESEGAVKRTYQGFHKRSLGVVQFDTTKNRYLAAGDDFSIKFWDMDAVQLLTAIDGDGGLQASPRIRFNKEGSLLAVSGNENVIKIMANSDGLRLLHTFENISSESSKPAINSIAAAAAAAATSAGHADRSANVVSIQGMNGDSRNMVDVKPVITEESNDKSKIWKLTEVSEPSQCRSLRLPENLRVAKISRLIFTNSGNAILALASNAIHLLWKWQRNERNATGKATASLPPQQWQPASGILMTNDVAETNPEEAVPCFALSKNDSYVMSASGGKISLFNMMTFKTMATFMPPPPAATFLAFHPQDNNIIAIGMDDSTIQIYNVRVDEVKSKLKGHSKRITGLAFSNVLNVLVSSGADAQLCVWNTDGWEKQRSKVLPLPQGRPNSAPSDTRVQFHQDQAHFLVVHETQLAIYETTKLECMKQWAVRESLAPITHATFSCDSQLVYASFMDATVCVFSSANLRLRCRVNPSAYLPASLSNSNVHPLVIAAHPQEPNMFAVGLSDGGVHIFEPLESEGKWGVAPPAENGSASGAPTAPSVGASASDQPQR
B2: TPL-HA (protein, UniProt Q94AI7 1-1131)
chain: MSSLSRELVFLILQFLDEEKFKETVHKLEQESGFFFNMKYFEDEVHNGNWDEVEKYLSGFTKVDDNRYSMKIFFEIRKQKYLEALDKHDRPKAVDILVKDLKVFSTFNEELFKEITQLLTLENFRENEQLSKYGDTKSARAIMLVELKKLIEANPLFRDKLQFPTLRNSRLRTLINQSLNWQHQLCKNPRPNPDIKTLFVDHSCGPPNGARAPSPVNNPLLGGIPKAGGFPPLGAHGPFQPTASPVPTPLAGWMSSPSSVPHPAVSAGAIALGGPSIPAALKHPRTPPTNASLDYPSADSEHVSKRTRPMGISDEVNLGVNMLPMSFSGQAHGHSPAFKAPDDLPKTVARTLSQGSSPMSMDFHPIKQTLLLVGTNVGDIGLWEVGSRERLVQKTFKVWDLSKCSMPLQAALVKEPVVSVNRVIWSPDGSLFGVAYSRHIVQLYSYHGGEDMRQHLEIDAHVGGVNDISFSTPNKQLCVITCGDDKTIKVWDAATGVKRHTFEGHEAPVYSVCPHYKENIQFIFSTALDGKIKAWLYDNMGSRVDYDAPGRWCTTMAYSADGTRLFSCGTSKDGESFIVEWNESEGAVKRTYQGFHKRSLGVVQFDTTKNRYLAAGDDFSIKFWDMDAVQLLTAIDGDGGLQASPRIRFNKEGSLLAVSGNENVIKIMANSDGLRLLHTFENISSESSKPAINSIAAAAAAAATSAGHADRSANVVSIQGMNGDSRNMVDVKPVITEESNDKSKIWKLTEVSEPSQCRSLRLPENLRVAKISRLIFTNSGNAILALASNAIHLLWKWQRNERNATGKATASLPPQQWQPASGILMTNDVAETNPEEAVPCFALSKNDSYVMSASGGKISLFNMMTFKTMATFMPPPPAATFLAFHPQDNNIIAIGMDDSTIQIYNVRVDEVKSKLKGHSKRITGLAFSNVLNVLVSSGADAQLCVWNTDGWEKQRSKVLPLPQGRPNSAPSDTRVQFHQDQAHFLVVHETQLAIYETTKLECMKQWAVRESLAPITHATFSCDSQLVYASFMDATVCVFSSANLRLRCRVNPSAYLPASLSNSNVHPLVIAAHPQEPNMFAVGLSDGGVHIFEPLESEGKWGVAPPAENGSASGAPTAPSVGASASDQPQR

Experiments:
[1] = target: RxL21 with Leu389 mutated to Phe, yeast two-hybrid fusion (Hyaloperonospora arabidopsidis); assay: two-hybrid; Gal4 AD-X (yeast Y8800) and DB-X (Y8930) fusions mated; growth on SC media lacking Leu, Trp and His (3AT for stringency) or also Ade; tested in both directions
[2] = target: RxL21ΔEAR1 (Δ402–409), yeast two-hybrid fusion (Hyaloperonospora arabidopsidis); assay: as above
[3] = target: RxL21ΔEAR2 (Δ360–409), yeast two-hybrid fusion (Hyaloperonospora arabidopsidis); assay: as above
[4] = target: RxL21ΔRxLR (Δ1–51), yeast two-hybrid fusion (Hyaloperonospora arabidopsidis); assay: as above
[5] = target: Myc-tagged RxL21ΔEAR (Hyaloperonospora arabidopsidis); assay: co-IP; transient co-expression in N. benthamiana leaves, RxL21 induced with 30 uM estradiol; sonicated nuclear lysate (10 mM Tris pH 7.5, 150 mM NaCl, 0.5% Igepal, 4 C); anti-c-myc magnetic microbeads, blot with anti-HA

Binder	binding [1]	binding [2]	binding [3]	binding [4]	binding [5]
B1	no binding	no binding	no binding	binds	–
B2	–	–	–	–	no binding

Source: article PMC7446885
